At least one compound was matched to its structure with a doubt left.
Columns and labels:
Type in all cases: in vivo, human
[1] = BLOOM-DM (APD356-010) Phase 3 study: Week 52 outcomes by Week 12/Week 24 responder status, patients with type 2 diabetes mellitus; conditions: both doses (10 mg BID and 10 mg QD), 52 weeks
Procedure: APD356-010 (BLOOM-DM) was a 52-week, placebo controlled study that evaluated the effect of two lorcaserin doses (10 mg BID and 10 mg QD) on categorical and total weight loss with concurrent behavior modification in 604 patients with type 2 diabetes mellitus managed with oral hypoglycemic agents. Randomization to the 10 mg once daily group was halted by protocol amendment in order to accelerate enrollment, resulting in final group sizes of 253 (placebo), 95 (lorcaserin QD) and 256 (lorcaserin BID).
An analysis of early weight loss was performed, at each visit after baseline through Week 24, as a predictor of ultimate weight loss success, as defined by achieving at least about 5% weight loss at 52 weeks, or at least about 10% weight loss at 52 weeks.
Table 3 and Table 4 provide the sensitivity, specificity, positive predicted value (PPV) and negative predictive value (NPV) at Weeks 12 and 24 for at least about 5% and at least about 10% weight loss at Week 52 in different studies. The rounded percent weight loss at Week 12 for at least 5% and at least about 10% weight loss at Week 52 are about 5% and about 6%, respectively. […]

[2] = APD356-009 (BLOOM) 104-week placebo controlled study in overweight and obese patients; conditions: 10 mg BID, Year 1 and Year 2
[3] = APD356-011 (BLOSSOM) 52-week placebo controlled study; conditions: 10 mg QD and BID, 52 weeks
[4] = Lorcaserin pivotal phase 3 clinical trial program (NDA summary)
Description: The NDA submission is based on an extensive data package from lorcaserin's clinical development program that includes 18 clinical trials totaling 8,576 patients. […] About two-thirds of patients achieved at least 5% weight loss and over one-third achieved at least 10% weight loss. On average, patients lost 17 to 18 pounds or about 8% of their weight. Secondary endpoints, including body composition, lipids, cardiovascular risk factors and glycemic parameters improved compared to placebo. In addition, heart rate and blood pressure went down. […] Lorcaserin improved quality of life, and there was no signal for depression or suicidal ideation. The only adverse event that exceeded the placebo rate by 5% was generally mild or moderate, transient headache. Based on a normal BMI of 25, patients in the first phase 3 trial lost about one-third of their excess body weight. The average weight loss was 35 pounds or 16% of body weight for the top quartile of patients in the second phase 3 trial.

[5] = pivotal phase 3 program, treated for up to two years

For C[C@H]1CNCCc2ccc(Cl)cc21 [lorcaserin, (R)-8-chloro-1-methyl-2,3,4,5-tetrahydro-1H-3-benzazepine], the co-primary efficacy endpoints [1] was “met the three pre-defined co-primary efficacy endpoints”, the study efficacy endpoints [2] was “met the pre-specified Year 1 categorical and mean weight loss endpoints, and the Year 2 weight maintenance endpoint” and the co-primary efficacy endpoints [3] was “met the pre-defined co-primary efficacy endpoints”. For the same compound, the “excess body weight lost” value ([4]; first phase 3 trial, based on a normal BMI of 25) was “about one-third”, the “patients achieving at least 5% weight loss” value [4, 5] was “About two-thirds” and the “patients achieving at least 10% weight loss” value [4, 5] was “over one-third”.

— US9169213B2, “Method of weight management” (Arena Pharmaceuticals, Inc., priority 2012, dated 2015)
